In the supplement of paper PMC10849652:
The other results are listed elsewhere or left out.

Amino acid sequences for entries named in this document (tags omitted). A change or cut given only in a name is not applied to a line headed by its entry.
UniProt Q8N567: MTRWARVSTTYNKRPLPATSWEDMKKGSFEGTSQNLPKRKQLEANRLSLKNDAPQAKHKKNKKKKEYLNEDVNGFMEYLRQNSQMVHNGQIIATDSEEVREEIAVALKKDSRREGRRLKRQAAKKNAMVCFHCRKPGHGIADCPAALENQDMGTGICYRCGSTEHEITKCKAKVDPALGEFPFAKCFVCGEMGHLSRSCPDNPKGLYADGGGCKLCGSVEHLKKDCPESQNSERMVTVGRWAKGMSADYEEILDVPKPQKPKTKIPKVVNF
UniProt Q8IUH4: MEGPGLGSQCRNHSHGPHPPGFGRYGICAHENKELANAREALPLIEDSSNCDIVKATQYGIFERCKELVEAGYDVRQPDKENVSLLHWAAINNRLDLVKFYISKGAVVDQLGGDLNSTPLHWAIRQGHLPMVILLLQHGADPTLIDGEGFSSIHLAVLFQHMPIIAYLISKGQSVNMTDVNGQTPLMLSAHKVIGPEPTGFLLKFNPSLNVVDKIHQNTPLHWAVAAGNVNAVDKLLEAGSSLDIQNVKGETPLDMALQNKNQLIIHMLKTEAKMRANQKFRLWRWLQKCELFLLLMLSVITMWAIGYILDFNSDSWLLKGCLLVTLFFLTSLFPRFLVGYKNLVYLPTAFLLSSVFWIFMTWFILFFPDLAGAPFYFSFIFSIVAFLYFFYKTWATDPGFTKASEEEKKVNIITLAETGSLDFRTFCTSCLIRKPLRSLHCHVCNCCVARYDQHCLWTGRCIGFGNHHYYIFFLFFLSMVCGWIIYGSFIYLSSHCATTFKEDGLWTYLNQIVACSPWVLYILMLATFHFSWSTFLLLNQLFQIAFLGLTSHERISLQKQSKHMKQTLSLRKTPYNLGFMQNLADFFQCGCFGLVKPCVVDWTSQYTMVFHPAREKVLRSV
UniProt Q9H8U3: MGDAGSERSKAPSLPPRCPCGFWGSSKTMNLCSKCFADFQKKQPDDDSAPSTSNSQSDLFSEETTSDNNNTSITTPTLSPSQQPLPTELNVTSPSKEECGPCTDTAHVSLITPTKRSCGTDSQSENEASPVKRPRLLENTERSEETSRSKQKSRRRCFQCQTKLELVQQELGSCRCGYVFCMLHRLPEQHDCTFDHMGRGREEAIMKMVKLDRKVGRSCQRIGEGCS

What was measured:
Test in all cases: log2 fold change, soluble protein after heating vs DMSO (PISA); higher = thermal stabilisation; K562 lysate, 10 uM; active = over 0.2 and 3.5 SD of the protein, either way, in both replicates (recomputed)
[1] = compound: C=CC(=O)N1CCC[C@@H](n2nc(-c3ccc(Oc4ccccc4)cc3)c3c(N)ncnc32)C1 [ibrutinib]
Procedure, shortened: (§1)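 A 30 min treatment with 10 μM compound was applied to crude K562 extract at 1 mg/mL protein in PBS pH 7.4 with 1 mM MgCl2. Heating for 3 min spanned 48°C-58°C, after which aliquots were pooled, adjusted to 0.5% NP-40 at 4°C and spun at 21,000xg for 90 min. TMTpro 16plex LC-MS/MS of the supernatant, with channel sums equalised, gave values recorded as log-two fold change in thermal stability against solvent controls, from duplicates.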

[2] = compound: CC(=O)c1cnc2ccc(-c3cc(Cl)c(O)c(Cl)c3)nc2c1N[C@H]1CC[C@H](CN(C)C)CC1
Procedure, shortened: as §1

[3] = compound: CC(C)(C)Cn1c(N)nc2ccc(-c3[nH]c(C(C)(C)C)nc3-c3ccc(F)cc3)nc21 [ralimetinib]
Procedure, shortened: as §1

[4] = compound: CC(C)(O)CC(=O)NCCn1ccc2ncnc(Nc3ccc(Oc4cccc(C(F)(F)F)c4)c(Cl)c3)c21
Procedure, shortened: as §1

[5] = compound: CC(C)C1=C2N=C(C=C(N2N=C1)NCC3=CC=CC=C3)NCCCCCCN
Procedure, shortened: as §1

[6] = compound: CC1=C(C2=C(C=C1)C(=O)C3=CC=CC=C3N2CCCN)C
Procedure, shortened: as §1

[7] = compound: CC1=C(C=C(C=C1)NC(=O)C2=CC(=CC=C2)C(C)(C)C#N)NC3=CC4=C(C=C3)N=CN(C4=O)C
Procedure, shortened: as §1

[8] = compound: CC1=C(C=C(C=C1)NC(=O)C2=CC(=CC=C2)N(C)C)NC(=O)C3=CC=C(C=C3)O
Procedure, shortened: as §1

[9] = compound: CC1=CC=C(C=C1)SC2=C3C=C(SC3=CN=C2)C(=O)N
Procedure, shortened: as §1

[10] = compound: CCCS(=O)(=O)Nc1ccc(F)c(C(=O)c2c[nH]c3ncc(-c4ccc(Cl)cc4)cc23)c1F [vemurafenib]
Procedure, shortened: as §1

[11] = compound: CCCS(=O)(=O)Nc1ccc(F)c(C(=O)c2c[nH]c3ncc(Cl)cc23)c1F
Procedure, shortened: as §1

[12] = compound: CCN(CCCOc1ccc2c(Nc3cc(CC(=O)Nc4cccc(F)c4)[nH]n3)ncnc2c1)CCOP(=O)(O)O [barasertib]
Procedure, shortened: as §1

[13] = compound: CC[C@@H]1C(=O)N(C)c2cnc(Nc3ccc(C(=O)NC4CCN(C)CC4)cc3OC)nc2N1C1CCCC1
Procedure, shortened: as §1

[14] = compound: CC[C@@H]1C(=O)N(C)c2cnc(Nc3ccc(C(=O)N[C@H]4CC[C@H](N5CCN(CC6CC6)CC5)CC4)cc3OC)nc2N1C(C)C [volasertib]
Procedure, shortened: as §1

[15] = compound: CCn1c(C(=O)N(C2CC2)C2CC2)cc2c3c(ncn3C)c(Nc3cc(C)n(C)n3)nc21
Procedure, shortened: as §1

[16] = compound: CN1CCN(CCOc2cc(OC3CCOCC3)c3c(Nc4c(Cl)ccc5c4OCO5)ncnc3c2)CC1 [saracatinib]
Procedure, shortened: as §1

[17] = compound: CN1CCN(c2nc(C3=C(c4c[nH]c5ccccc45)C(=O)NC3=O)c3ccccc3n2)CC1 [sotrastaurin]
Procedure, shortened: as §1

[18] = compound: CCn1cc(-c2ccnc3[nH]c(-c4cccc(CN(C)C)c4)cc23)c(-c2ccc(NC(=O)N(C)C)cc2)n1
Procedure, shortened: as §1

[19] = compound: CN1CCC(CNc2ccc3ncc(-c4cccc(OC(F)(F)F)c4)n3n2)CC1
Procedure, shortened: as §1

Measured: log2 fold change

ZCCHC9 (UniProt Q8N567)
inactive: [1] -0.013 | [2] -0.021 | [3] -0.034 | [4] -0.042 | [5] 0.044 | [6] -0.069 | [7] 0.036 | [8] -0.168 | [9] -0.026 | [10] -0.088 | [11] 0.011 | [12] -0.015 | [13] 0.018 | [14] 0.048 | [15] 0.016 | [16] 0.01 | [17] -0.053

ZDHHC13 (UniProt Q8IUH4)
inactive: [1] 0.118 | [5] -0.036 | [6] 0.076 | [10] 0.172 | [12] 0.06 | [18] 0.071 | [19] -0.22 | [16] 0.255

ZFAND3 (UniProt Q9H8U3)
inactive: [1] -0.098 | [2] 0.092 | [3] 0 | [4] -0.045 | [6] -0.039 | [7] -0.16 | [8] -0.001 | [9] 0.029 | [10] -0.126 | [11] -0.037 | [12] 0.083 | [13] 0.116 | [14] -0.049 | [15] 0.006 | [18] 0.116 | [19] -0.037 | [16] -0.05 | [17] 0.156
